Laboratory results from the supplement of paper PMC10849652.
Some of the results follow.

Amino acid sequences for entries named in this document (tags omitted). A change or cut given only in a name is not applied to a line headed by its entry.
UniProt Q9UEE9, whole entry, looked up: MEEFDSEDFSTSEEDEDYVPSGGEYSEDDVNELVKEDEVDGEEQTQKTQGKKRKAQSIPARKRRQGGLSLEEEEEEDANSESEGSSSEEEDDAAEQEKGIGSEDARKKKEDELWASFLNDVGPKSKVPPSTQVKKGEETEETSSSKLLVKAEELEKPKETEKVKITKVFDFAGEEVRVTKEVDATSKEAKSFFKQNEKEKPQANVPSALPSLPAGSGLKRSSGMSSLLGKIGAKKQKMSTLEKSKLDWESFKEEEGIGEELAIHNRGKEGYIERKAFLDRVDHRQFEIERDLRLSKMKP
UniProt Q9H444: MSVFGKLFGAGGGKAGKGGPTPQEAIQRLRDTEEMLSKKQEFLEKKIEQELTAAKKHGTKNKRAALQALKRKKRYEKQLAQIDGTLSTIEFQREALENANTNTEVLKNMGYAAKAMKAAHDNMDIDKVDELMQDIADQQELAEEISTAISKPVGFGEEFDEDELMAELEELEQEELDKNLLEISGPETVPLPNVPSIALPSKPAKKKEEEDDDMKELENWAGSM
UniProt O14757: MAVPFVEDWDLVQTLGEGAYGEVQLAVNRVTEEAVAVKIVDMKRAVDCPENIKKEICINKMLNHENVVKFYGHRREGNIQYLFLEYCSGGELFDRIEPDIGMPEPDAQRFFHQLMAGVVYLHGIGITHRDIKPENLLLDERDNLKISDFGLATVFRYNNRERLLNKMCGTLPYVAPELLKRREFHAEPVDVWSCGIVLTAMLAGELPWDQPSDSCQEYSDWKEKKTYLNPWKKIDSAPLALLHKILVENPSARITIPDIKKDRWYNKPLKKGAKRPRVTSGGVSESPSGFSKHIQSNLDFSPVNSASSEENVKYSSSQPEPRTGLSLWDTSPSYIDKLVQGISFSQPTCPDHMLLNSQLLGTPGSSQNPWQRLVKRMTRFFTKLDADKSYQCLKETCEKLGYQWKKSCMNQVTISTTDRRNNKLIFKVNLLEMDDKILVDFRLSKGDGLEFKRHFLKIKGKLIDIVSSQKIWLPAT
UniProt Q96CF2: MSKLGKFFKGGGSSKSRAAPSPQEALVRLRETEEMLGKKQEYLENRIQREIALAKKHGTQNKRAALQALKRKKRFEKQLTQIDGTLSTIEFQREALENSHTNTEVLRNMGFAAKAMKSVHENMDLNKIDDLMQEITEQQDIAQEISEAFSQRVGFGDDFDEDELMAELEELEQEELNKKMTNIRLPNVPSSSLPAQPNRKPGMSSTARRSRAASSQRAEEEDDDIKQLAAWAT
UniProt Q9UKJ5: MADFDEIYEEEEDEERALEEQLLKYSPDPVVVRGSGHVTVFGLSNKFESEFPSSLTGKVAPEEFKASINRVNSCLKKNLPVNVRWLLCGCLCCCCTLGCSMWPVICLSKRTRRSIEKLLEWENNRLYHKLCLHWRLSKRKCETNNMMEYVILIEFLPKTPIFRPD
UniProt Q9Y3E7, whole entry, looked up: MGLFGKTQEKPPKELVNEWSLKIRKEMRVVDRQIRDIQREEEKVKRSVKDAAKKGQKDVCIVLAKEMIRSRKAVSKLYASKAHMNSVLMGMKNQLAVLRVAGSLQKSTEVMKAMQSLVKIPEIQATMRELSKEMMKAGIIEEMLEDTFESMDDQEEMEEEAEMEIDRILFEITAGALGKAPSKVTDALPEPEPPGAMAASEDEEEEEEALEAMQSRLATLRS
UniProt O96017, whole entry, looked up: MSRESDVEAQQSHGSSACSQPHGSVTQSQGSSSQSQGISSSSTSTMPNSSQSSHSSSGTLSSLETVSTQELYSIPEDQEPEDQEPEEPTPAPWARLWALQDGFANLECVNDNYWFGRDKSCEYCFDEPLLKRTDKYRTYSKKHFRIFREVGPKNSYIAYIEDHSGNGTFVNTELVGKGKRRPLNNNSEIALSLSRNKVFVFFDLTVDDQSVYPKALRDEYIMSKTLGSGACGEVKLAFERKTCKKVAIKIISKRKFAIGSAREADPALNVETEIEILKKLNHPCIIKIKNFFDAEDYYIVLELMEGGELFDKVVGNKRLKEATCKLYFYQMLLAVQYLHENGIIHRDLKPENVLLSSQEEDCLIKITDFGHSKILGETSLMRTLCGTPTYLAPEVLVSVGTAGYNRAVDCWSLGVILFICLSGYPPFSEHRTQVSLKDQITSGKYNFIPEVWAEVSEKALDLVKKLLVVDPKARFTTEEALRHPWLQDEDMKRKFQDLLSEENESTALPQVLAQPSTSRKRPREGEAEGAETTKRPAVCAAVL
UniProt Q6ZMG9: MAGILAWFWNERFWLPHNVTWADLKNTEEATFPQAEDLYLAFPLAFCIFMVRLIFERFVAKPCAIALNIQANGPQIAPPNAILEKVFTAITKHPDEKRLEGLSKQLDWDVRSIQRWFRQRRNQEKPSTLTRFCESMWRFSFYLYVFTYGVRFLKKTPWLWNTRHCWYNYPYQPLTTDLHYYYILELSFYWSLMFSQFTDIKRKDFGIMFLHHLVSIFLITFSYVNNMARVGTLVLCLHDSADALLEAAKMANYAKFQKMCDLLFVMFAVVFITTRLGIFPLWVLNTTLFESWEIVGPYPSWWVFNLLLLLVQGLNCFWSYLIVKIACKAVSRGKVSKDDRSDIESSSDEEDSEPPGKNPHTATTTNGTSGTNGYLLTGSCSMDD
UniProt Q9NXV6: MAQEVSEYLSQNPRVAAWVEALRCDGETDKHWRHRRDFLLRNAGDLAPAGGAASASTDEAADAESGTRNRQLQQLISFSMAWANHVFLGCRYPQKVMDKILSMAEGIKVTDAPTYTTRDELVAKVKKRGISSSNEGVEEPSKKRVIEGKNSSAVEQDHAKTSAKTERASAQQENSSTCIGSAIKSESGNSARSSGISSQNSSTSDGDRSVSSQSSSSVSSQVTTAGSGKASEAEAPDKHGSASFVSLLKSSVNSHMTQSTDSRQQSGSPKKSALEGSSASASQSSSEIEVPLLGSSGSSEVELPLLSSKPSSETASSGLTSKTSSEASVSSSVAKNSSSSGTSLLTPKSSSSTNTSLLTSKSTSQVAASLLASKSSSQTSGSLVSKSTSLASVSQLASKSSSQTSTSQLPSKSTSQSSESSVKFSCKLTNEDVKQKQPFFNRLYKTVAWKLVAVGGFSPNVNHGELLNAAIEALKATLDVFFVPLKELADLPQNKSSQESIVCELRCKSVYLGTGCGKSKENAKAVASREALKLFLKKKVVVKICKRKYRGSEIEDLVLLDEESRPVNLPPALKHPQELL
UniProt P24386: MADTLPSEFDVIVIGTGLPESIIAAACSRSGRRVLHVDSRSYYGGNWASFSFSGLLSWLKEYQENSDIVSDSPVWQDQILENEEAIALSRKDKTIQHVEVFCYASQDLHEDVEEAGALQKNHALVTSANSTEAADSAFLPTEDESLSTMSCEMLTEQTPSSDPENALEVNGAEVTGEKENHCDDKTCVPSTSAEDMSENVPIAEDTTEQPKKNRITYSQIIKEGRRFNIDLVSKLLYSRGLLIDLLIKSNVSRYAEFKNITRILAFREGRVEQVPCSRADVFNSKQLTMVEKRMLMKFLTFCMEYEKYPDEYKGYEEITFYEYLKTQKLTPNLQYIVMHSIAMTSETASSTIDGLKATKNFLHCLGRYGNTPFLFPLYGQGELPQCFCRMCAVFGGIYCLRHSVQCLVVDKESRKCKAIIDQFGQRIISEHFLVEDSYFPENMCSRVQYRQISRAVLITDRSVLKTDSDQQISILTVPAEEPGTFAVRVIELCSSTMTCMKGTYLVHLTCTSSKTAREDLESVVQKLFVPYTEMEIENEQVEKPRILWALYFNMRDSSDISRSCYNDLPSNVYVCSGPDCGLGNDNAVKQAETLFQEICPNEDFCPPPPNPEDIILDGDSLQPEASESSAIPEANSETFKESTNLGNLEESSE
UniProt Q9Y6A4: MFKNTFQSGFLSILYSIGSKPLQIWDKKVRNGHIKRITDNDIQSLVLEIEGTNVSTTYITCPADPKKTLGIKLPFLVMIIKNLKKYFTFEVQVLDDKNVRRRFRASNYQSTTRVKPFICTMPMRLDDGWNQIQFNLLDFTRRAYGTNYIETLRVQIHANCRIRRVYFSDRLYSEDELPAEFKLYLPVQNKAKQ
UniProt Q00536: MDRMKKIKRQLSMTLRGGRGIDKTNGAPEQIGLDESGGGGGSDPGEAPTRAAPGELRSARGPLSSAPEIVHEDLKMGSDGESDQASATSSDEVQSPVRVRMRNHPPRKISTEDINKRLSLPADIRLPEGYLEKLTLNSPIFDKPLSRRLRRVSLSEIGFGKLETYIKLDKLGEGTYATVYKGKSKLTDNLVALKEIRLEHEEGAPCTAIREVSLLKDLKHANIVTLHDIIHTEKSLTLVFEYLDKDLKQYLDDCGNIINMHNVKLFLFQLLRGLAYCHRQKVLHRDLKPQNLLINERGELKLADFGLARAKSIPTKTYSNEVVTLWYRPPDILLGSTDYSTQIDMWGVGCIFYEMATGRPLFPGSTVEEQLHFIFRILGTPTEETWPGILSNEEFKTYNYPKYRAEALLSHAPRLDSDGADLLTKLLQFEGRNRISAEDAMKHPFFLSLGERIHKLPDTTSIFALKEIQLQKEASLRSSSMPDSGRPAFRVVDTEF
UniProt Q96FF9: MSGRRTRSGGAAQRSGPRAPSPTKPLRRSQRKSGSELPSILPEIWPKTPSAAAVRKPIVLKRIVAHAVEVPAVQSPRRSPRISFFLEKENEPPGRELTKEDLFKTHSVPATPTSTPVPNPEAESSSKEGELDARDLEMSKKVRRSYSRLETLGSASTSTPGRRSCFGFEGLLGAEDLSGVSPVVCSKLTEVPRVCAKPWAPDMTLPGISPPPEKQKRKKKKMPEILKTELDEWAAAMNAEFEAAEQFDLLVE
UniProt Q9Y281, whole entry, looked up: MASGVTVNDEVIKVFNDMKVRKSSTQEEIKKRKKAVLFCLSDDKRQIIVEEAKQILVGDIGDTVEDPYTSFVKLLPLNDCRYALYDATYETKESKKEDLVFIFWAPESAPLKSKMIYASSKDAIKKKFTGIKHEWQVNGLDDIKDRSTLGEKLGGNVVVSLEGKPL
UniProt P49336: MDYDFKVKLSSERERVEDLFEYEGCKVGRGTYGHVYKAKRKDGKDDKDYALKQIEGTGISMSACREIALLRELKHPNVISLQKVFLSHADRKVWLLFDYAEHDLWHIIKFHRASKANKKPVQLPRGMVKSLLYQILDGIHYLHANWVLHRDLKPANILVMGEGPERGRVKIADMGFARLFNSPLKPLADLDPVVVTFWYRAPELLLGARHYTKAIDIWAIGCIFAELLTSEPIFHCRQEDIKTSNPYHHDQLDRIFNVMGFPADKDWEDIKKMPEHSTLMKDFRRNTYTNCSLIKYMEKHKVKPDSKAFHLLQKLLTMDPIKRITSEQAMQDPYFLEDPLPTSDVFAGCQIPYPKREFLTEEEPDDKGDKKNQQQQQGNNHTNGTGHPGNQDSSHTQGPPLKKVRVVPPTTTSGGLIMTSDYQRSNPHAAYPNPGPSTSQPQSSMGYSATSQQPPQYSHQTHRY
UniProt Q15517: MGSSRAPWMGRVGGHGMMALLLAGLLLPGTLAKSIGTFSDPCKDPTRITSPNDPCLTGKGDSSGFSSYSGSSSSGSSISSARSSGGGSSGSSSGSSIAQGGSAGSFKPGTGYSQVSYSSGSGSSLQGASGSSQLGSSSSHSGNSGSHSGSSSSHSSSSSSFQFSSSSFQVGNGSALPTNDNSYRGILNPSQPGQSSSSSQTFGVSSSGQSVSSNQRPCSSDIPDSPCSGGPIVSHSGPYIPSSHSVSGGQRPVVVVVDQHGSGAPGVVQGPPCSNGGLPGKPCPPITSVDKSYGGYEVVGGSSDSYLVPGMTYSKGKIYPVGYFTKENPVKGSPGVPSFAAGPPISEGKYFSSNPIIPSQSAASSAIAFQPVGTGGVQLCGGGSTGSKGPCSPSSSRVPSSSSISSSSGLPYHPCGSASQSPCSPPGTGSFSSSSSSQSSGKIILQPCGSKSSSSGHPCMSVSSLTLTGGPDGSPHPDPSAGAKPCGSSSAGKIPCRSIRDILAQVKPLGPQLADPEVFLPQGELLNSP
UniProt Q7LBR1: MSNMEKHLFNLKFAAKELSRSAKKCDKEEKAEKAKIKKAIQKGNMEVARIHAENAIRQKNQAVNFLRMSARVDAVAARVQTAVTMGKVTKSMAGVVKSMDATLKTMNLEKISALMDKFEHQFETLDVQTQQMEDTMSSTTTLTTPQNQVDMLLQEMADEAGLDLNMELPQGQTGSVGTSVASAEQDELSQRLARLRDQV
UniProt Q8N4Q1: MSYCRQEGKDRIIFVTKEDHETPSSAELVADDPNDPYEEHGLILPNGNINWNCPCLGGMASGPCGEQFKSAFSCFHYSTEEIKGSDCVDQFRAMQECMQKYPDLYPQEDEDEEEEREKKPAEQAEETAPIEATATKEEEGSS
UniProt O15182: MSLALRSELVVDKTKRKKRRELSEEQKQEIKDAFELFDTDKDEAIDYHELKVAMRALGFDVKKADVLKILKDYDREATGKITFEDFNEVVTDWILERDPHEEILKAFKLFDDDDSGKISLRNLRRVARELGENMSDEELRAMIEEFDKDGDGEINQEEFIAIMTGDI
UniProt Q9UFW8: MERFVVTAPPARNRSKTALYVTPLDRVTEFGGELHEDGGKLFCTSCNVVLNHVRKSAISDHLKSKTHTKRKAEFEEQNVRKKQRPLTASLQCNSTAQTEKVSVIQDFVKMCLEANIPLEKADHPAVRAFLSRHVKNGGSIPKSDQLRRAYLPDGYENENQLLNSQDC

Experiments:
Assay in all cases: log2 fold change, soluble protein after heating vs DMSO (PISA); higher = thermal stabilisation; K562 cells, 10 uM, 30 min; active = over 0.2 and 3.5 SD of the protein, either way, in both replicates (recomputed)
[1] = compound: NC(=O)Nc1cc(-c2cccc(F)c2)sc1C(=O)N[C@H]1CCCNC1
How it was run: (§1)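 K562 cells at 2×10^6 cells/mL were exposed to 10 μM compound for 30 min, then aliquots were heated for 3 min across 48°C-58°C, pooled, and extracted in PBS containing 0.5% NP-40 at 4°C. The supernatant after 21,000xg for 90 min was taken as soluble protein and measured by TMTpro 16plex LC-MS/MS with channel sums equalised. Thermal stability is reported relative to control samples, with values from duplicates. Fold changes are given on a log2 scale.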

[2] = compound: NC(=O)c1cnc(N[C@@H]2CCCC[C@@H]2N)nc1Nc1cccc(-n2nccn2)c1
How it was run: as §1

[3] = compound: NC1(c2ccc(-c3nc4ccn5c(=O)[nH]nc5c4cc3-c3ccccc3)cc2)CCC1
How it was run: as §1

[4] = compound: NCC(=O)Nc1ccc(-n2nc(C(F)(F)F)cc2-c2ccc3c(ccc4ccccc43)c2)cc1
How it was run: as §1

entinostat = compound: Nc1ccccc1NC(=O)c1ccc(CNC(=O)OCc2cccnc2)cc1 [entinostat]
How it was run: as §1

vorinostat = compound: O=C(CCCCCCC(=O)Nc1ccccc1)NO [vorinostat]
How it was run: as §1

citarinostat = compound: O=C(CCCCCCNC(=O)c1cnc(N(c2ccccc2)c2ccccc2Cl)nc1)NO [citarinostat]
How it was run: as §1

silmitasertib = compound: O=C(O)c1ccc2c(c1)nc(Nc1cccc(Cl)c1)c1ccncc12 [silmitasertib]
How it was run: as §1

[5] = compound: O=C1NC(=O)C(c2cnc3ccccn23)=C1c1cn2c3c(cc(F)cc13)CN(C(=O)N1CCCCC1)CC2
How it was run: as §1

[6] = compound: c1cc(OCCN2CCCCC2)cc(-c2n[nH]c3ccc(-c4nnc[nH]4)cc23)c1
How it was run: as §1

Target	log2 fold change [1]	log2 fold change [2]	log2 fold change [3]	log2 fold change [4]	log2 fold change (entinostat)	log2 fold change (vorinostat)	log2 fold change (citarinostat)	log2 fold change (silmitasertib)	log2 fold change [5]	log2 fold change [6]
CFDP1 (UniProt Q9UEE9)	inactive: 0.041	inactive: -0.004	inactive: 0.011	inactive: 0.009	inactive: -0.014	inactive: -0.083	inactive: 0.017	inactive: -0.015	inactive: -0.052	inactive: 0.015
CHMP4B (UniProt Q9H444)	active: 0.255	inactive: -0.011	inactive: -0.065	inactive: -0.001	inactive: 0.108	inactive: 0.024	inactive: -0.044	inactive: -0.016	inactive: 0.014	inactive: 0.022
CFH (UniProt P08603)	inactive: -0.053	inactive: -0.012	inactive: -0.031	inactive: 0.025	inactive: -0.079	inactive: -0.157	inactive: -0.058	inactive: 0.012	inactive: 0.013	inactive: 0.082
CHEK1 (UniProt O14757)	active: 0.338	inactive: -0.225	inactive: -0.209	inactive: -0.032	inactive: 0.02	inactive: 0.037	inactive: 0.094	inactive: -0.011	inactive: -0.064	active: -0.276
CHMP4C (UniProt Q96CF2)	inactive: -0.003	inactive: -0.005	inactive: -0.089	inactive: -0.043	inactive: 0.041	inactive: 0.02	inactive: -0.138	inactive: 0.028	inactive: -0.22	inactive: 0.052
CHIC2 (UniProt Q9UKJ5)	inactive: -0.036	inactive: -0.149	inactive: -0.044	inactive: -0.096	inactive: 0.039	inactive: -0.041	inactive: 0.044	inactive: 0.076	inactive: -0.017	inactive: -0.146
CHAC2 (UniProt Q8WUX2)	inactive: 0.022	inactive: -0.019	inactive: -0.008	inactive: -0.028	inactive: -0.017	inactive: -0.016	inactive: -0.232	inactive: 0.022	inactive: -0.03	active: 0.419
CHMP3 (UniProt Q9Y3E7)	inactive: 0.043	inactive: -0.047	inactive: -0.09	inactive: -0.107	inactive: -0.027	inactive: 0.018	inactive: 0.098	inactive: 0.018	inactive: -0.088	inactive: 0.004
CHEK2 isoform 9 (UniProt O96017)	inactive: 0.067	inactive: 0.015	inactive: -0.072	inactive: 0.005	inactive: 0.041	inactive: -0.004	inactive: 0.045	inactive: 0.017	inactive: -0.077	inactive: -0.002
CERS6 isoform 2 (UniProt Q6ZMG9)	inactive: -0.122	inactive: -0.04	inactive: -0.04	inactive: 0.008	inactive: -0.013	inactive: -0.018	inactive: -0.019	inactive: -0.02	inactive: 0.032	inactive: -0.083
CDKN2AIP (UniProt Q9NXV6)	inactive: 0.003	inactive: 0.044	inactive: -0.018	inactive: -0.026	inactive: 0.017	inactive: 0.027	inactive: 0.013	inactive: 0.026	inactive: 0.022	inactive: -0.071
CHM (UniProt P24386)	inactive: 0.015	inactive: -0.049	inactive: -0.168	inactive: 0.004	inactive: 0.007	inactive: -0.038	inactive: 0.146	inactive: 0.085	inactive: -0.04	inactive: -0.093
CFAP20 (UniProt Q9Y6A4)	inactive: -0.035	inactive: -0.034	inactive: -0.006	inactive: -0.123	inactive: 0.002	inactive: 0.017	inactive: 0.032	inactive: 0.046	inactive: 0.087	inactive: -0.221
CDK16 isoform 2 (UniProt Q00536)	inactive: -0.07	inactive: -0.091	inactive: -0.104	inactive: -0.061	inactive: -0.041	inactive: -0.044	inactive: 0.061	inactive: 0.201	active: 0.845	inactive: -0.006
CDK12 (UniProt Q9NYV4)	inactive: -0.002	inactive: 0.005	inactive: 0.06	inactive: 0.01	inactive: 0.005	inactive: 0.089	inactive: -0.051	inactive: -0.081	inactive: 0.179	inactive: -0.242
CDCA5 (UniProt Q96FF9)	inactive: -0.066	inactive: -0.02	inactive: 0.024	inactive: -0.009	inactive: 0.069	inactive: 0.017	inactive: 0.031	inactive: 0.069	inactive: -0.041	inactive: -0.059
CFL2 (UniProt Q9Y281)	inactive: -0.05	inactive: 0.068	inactive: -0.074	inactive: -0.053	inactive: -0.014	inactive: 0.016	inactive: -0.107	inactive: 0.065	inactive: -0.03	inactive: -0.14
CHCHD1 (UniProt Q96BP2)	inactive: 0.017	inactive: -0.142	inactive: -0.149	inactive: -0.023	inactive: 0.03	inactive: 0.023	inactive: 0.009	inactive: 0.031	inactive: -0.015	inactive: -0.169
CHMP2A (UniProt O43633)	inactive: 0.113	inactive: 0.012	inactive: -0.099	inactive: 0.023	inactive: -0.005	inactive: 0.009	inactive: 0.08	inactive: -0.014	inactive: -0.028	inactive: 0.008
CDK8 (UniProt P49336)	inactive: -0.038	inactive: 0.011	inactive: 0.036	inactive: 0.014	inactive: -0.152	inactive: 0.038	inactive: -0.002	inactive: 0.175	inactive: 0.036	inactive: -0.019
CDSN (UniProt Q15517)	inactive: 0.068	inactive: 0.554	inactive: 0.099	inactive: 0.465	inactive: 0.348	inactive: -0.065	inactive: -0.41	inactive: -0.092	inactive: -0.064	inactive: 0.187
CHMP4A isoform 2 (UniProt Q9BY43)	inactive: 0.025	inactive: -0.06	inactive: -0.026	inactive: -0.009	inactive: -0.027	inactive: -0.02	inactive: -0.032	inactive: 0.007	inactive: 0.007	inactive: 0.028
CERS5 (UniProt Q8N5B7)	inactive: -0.045	inactive: -0.018	inactive: 0.015	inactive: -0.031	inactive: 0.074	inactive: 0.006	inactive: -0.058	inactive: 0.056	inactive: -0.05	inactive: -0.017
CHMP1B (UniProt Q7LBR1)	inactive: 0.002	inactive: -0.072	inactive: -0.081	inactive: -0.063	inactive: 0.018	inactive: 0.043	inactive: 0.006	inactive: 0.072	inactive: -0.076	inactive: -0.019
CHCHD4 isoform 2 (UniProt Q8N4Q1)	inactive: 0.335	inactive: 0.06	inactive: -0.007	inactive: 0.084	inactive: 0.339	inactive: 0.442	inactive: -0.013	inactive: 0.038	inactive: 0.123	inactive: 0.027
CETN3 (UniProt O15182)	inactive: -0.016	inactive: -0.059	inactive: -0.031	inactive: -0.102	inactive: 0.033	inactive: -0.126	inactive: -0.002	inactive: 0.032	inactive: -0.1	inactive: -0.061
CHKA (UniProt P35790)	inactive: 0.015	active: -0.316	inactive: 0.014	inactive: 0.012	inactive: -0.023	inactive: -0.034	inactive: -0.055	inactive: 0.013	inactive: -0.011	inactive: -0.012
CDK5RAP1 (UniProt Q96SZ6)	inactive: -0.107	inactive: 0.047	inactive: -0.114	inactive: 0.199	inactive: -0.008	inactive: -0.089	inactive: -0.055	inactive: 0.06	inactive: -0.023	inactive: -0.031
CGGBP1 (UniProt Q9UFW8)	inactive: 0.054	inactive: 0.016	inactive: 0.052	inactive: 0.005	inactive: -0.007	inactive: 0.008	inactive: 0.059	inactive: 0.001	inactive: 0.046	inactive: -0.057

Quoted at random: 2 records from the list, in no set order.
Target	log2 fold change [1]	log2 fold change [2]	log2 fold change [3]	log2 fold change [4]	log2 fold change (entinostat)	log2 fold change (vorinostat)	log2 fold change (citarinostat)	log2 fold change (silmitasertib)	log2 fold change [5]	log2 fold change [6]
CHM (UniProt P24386)	inactive: 0.015	inactive: -0.049	inactive: -0.168	inactive: 0.004	inactive: 0.007	inactive: -0.038	inactive: 0.146	inactive: 0.085	inactive: -0.04	inactive: -0.093
CFAP20 (UniProt Q9Y6A4)	inactive: -0.035	inactive: -0.034	inactive: -0.006	inactive: -0.123	inactive: 0.002	inactive: 0.017	inactive: 0.032	inactive: 0.046	inactive: 0.087	inactive: -0.221
